# Assay results from PubChem BioAssay AID651768 (National Center for Advancing Translational Sciences (NCATS), 2012).
# By UniProt entry, the sequences of proteins in these tests, tags left out.
# UniProt Q14191, whole entry, looked up: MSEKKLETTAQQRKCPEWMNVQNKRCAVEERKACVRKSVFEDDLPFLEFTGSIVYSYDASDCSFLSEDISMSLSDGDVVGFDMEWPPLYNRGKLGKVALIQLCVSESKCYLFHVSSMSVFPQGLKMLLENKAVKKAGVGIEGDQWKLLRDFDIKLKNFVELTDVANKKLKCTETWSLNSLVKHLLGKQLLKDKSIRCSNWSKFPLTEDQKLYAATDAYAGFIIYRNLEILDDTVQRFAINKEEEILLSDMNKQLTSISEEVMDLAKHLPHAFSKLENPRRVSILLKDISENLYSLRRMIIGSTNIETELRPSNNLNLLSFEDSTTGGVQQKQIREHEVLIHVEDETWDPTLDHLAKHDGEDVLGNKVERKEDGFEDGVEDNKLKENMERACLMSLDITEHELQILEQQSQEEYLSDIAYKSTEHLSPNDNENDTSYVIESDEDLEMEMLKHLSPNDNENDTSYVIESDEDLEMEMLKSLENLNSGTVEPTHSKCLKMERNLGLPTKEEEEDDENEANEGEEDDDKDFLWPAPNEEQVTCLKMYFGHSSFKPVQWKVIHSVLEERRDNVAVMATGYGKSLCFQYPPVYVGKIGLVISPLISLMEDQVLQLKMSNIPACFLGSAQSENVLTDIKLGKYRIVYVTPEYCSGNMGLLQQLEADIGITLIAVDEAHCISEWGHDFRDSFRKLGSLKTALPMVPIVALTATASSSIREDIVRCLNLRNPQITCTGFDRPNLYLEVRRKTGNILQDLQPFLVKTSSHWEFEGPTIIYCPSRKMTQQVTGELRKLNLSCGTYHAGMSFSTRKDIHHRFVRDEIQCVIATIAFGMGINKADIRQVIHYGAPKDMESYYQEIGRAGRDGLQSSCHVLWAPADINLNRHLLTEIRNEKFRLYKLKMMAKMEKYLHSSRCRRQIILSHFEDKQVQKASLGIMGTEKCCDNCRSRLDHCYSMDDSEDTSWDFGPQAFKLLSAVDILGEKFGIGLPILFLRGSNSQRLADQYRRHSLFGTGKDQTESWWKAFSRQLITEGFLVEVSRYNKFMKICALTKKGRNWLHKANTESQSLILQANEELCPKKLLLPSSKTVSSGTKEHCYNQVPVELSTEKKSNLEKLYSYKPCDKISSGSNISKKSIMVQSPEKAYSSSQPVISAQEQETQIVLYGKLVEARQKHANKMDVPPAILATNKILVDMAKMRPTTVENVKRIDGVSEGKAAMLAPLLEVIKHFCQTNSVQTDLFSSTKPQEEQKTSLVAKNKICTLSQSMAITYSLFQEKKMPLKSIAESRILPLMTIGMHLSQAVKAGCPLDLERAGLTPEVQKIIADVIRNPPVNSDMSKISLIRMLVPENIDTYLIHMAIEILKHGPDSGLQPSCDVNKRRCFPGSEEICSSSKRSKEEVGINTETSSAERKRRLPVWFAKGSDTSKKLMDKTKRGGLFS
# Out of some 360,000 compounds screened, about 1,700 (0.47%) were called active. Inconclusive means that the source gave no clear call. Such entries were picked first, then a sample of the others. Calls follow the shape of the dose curve; as a rule, active = well fitted inhibition curve with a large enough effect; inconclusive = small, poorly fitted or top-dose-only effect; inactive = no such curve, though single readings can be large or run the other way. A potency beside an inconclusive call is a rough fit, not a confirmed value.
# Biological target: Bifunctional 3'-5' exonuclease/ATP-dependent helicase WRN (Homo sapiens) (UniProt Q14191)
# Assay: qHTS for Inhibitors of WRN Helicase; also: nearly all actives have a fitted effect of over 55% in size
# Settings: WRN helicase unwinding, fluorescent forked duplex, kinetic; activity change, negative = inhibition: at 114 µM (top of the series) unless noted
# How it was run: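 Kinetic red-fluorescence monitoring (525/598 nm) tracks WRN helicase activity after 100 nM fluorophore-quencher forked duplex and 2 mM ATP are added to 20 nM enzyme pretreated 15 min at room temperature with compound.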
# % is scaled to controls: 0 for no effect and ±100 for the full control effect; potency is read from the fitted curve at half-maximal effect.
Structure (SMILES),Potency,"activity change, negative = inhibition"
COCCn1c(SCC(=O)c2ccccc2)nc2ccccc2c1=O,"inconclusive: 39.8 µM [inhibitor, single point]",–
Cc1ccc2nc(-c3ccc(NC(=O)CN4CCN(C(=O)c5ccco5)CC4)cc3)sc2c1,"inconclusive: 56.2 µM [inhibitor, partial curve]",–
COc1ccc(OC)c(Nc2nc(NCCCN(C)C)nc(N)c2[N+](=O)[O-])c1,active: 35.5 µM,–
COc1cc(CC(=O)OCC(=O)Nc2cc([N+](=O)[O-])ccc2Cl)cc(OC)c1OC,inactive,–
COc1ccccc1/C=N/NC(=O)CO,inactive,–
COc1ccc(C(=O)C2CCCN(S(=O)(=O)c3cccc(C)c3)C2)c(C)c1 (stereo not drawn),"inconclusive: 79.4 µM [inhibitor, single point]",–
O=C(/C=C/c1cccc([N+](=O)[O-])c1)c1cccs1,inactive,–
O=C(/C=C/c1ccc([N+](=O)[O-])cc1)c1cccnc1,"inconclusive: 50.1 µM [inhibitor, partial curve]",–
COc1cc(/C=C/C(=O)O)cc(S(=O)(=O)Nc2ccccc2Cl)c1OC,"inconclusive: 100 µM [inhibitor, partial curve]",–
CC(Cc1ccc(O)c(O)c1)C(C)Cc1ccc(O)c(O)c1 (stereo not drawn),active: 17.8 µM,–
N#Cc1cccc(OC(=O)c2ccc3c(=O)n4c(nc3c2)CCC4)c1,"inconclusive: 44.7 µM [inhibitor, partial curve, poor fit]",–
O=C(COC(=O)C1CC1)Nc1ncc(Cl)cc1Cl,"inconclusive: 50.1 µM [inhibitor, partial curve]",–
CCOC(=O)/C=C1/N(C)c2ccccc2C1(C)C,inactive,–
COc1ccc(NC(C)=O)cc1NC(=O)CSc1nc2ncccc2[nH]1,"inconclusive: 89.1 µM [inhibitor, single point]",–
CN(C)S(=O)(=O)c1cccc(NC(=S)N/N=C/c2ccc(O)c(O)c2O)c1,active: 28.2 µM,–
O=C(O)c1cccc(-n2cccc2/C=C2/SC(=O)N(CC(=O)N3CCCC3)C2=O)c1,active: 56.2 µM,–
COC(=O)c1cc(C#N)c(NCc2ccccc2)nc1C,inactive,–
CCCc1cc(=O)[nH]c(SCC(=O)Nc2cc(S(=O)(=O)N3CCCCC3)ccc2Cl)n1,"inconclusive: 15.8 µM [inhibitor, single point]",–
Cc1cc2c3ccccc3ncn2n1,inactive,–
COC(=O)Nc1ccc(S(=O)(=O)N2CCC(C(=O)N(C)C3CCCCC3)CC2)cc1,"inconclusive: 39.8 µM [inhibitor, single point]",–
Cc1ccsc1/C=N/Nc1ncc(Cl)cc1Cl,inactive,–
COc1ccc(CCn2c(-n3nc(C)cc3C)nc3c2c(=O)[nH]c(=O)n3C)cc1,active: 79.4 µM,–
Cc1nc2ccccn2c1C(=O)N/N=C/c1ccc([N+](=O)[O-])cc1,inactive,–
COc1cc(OC)cc(C(=O)N2CCC(N3CCN(c4ccccc4OC)CC3)CC2)c1,"inconclusive: 50.1 µM [inhibitor, partial curve]",–
O=C(COc1ccc(/C=N/NC(=O)c2ccccc2O)cc1)Nc1ccc([N+](=O)[O-])cc1,active: 16.8 µM,–

Structure (SMILES),Potency,"activity change, negative = inhibition"
Nc1ccc2nc3c(=O)[nH]c(=S)[nH]c3nc2c1,active: 7.08 µM,–
CSc1nc(-c2ccc(Cl)cc2Cl)[nH]c(=O)c1C#N,"inconclusive: 35.5 µM [inhibitor, partial curve]",–
O=c1cc(O)c2sc(Nc3ccc(F)c(Cl)c3)nc2[nH]1,"inconclusive: 70.8 µM [inhibitor, single point]",–
O=C1C(F)=CC(COC(c2ccccc2)(c2ccccc2)c2ccccc2)OC1n1cc(F)c(=O)[nH]c1=O (stereo not drawn),"inconclusive: 20 µM [inhibitor, full curve]",–
CC(=O)c1sc2nc(SCC(=O)N3CCCCC3)[nH]c(=O)c2c1C,"inconclusive: 56.2 µM [inhibitor, partial curve]",–
Cc1ccc(C)n1/N=C1/NC(=O)CS1,active: 15.8 µM,–
COc1cccc(/C=N/NC(=O)c2cc3cc([N+](=O)[O-])ccc3s2)c1O,active: 35.5 µM,–
O=C(O)c1ccc(/C=C2\COc3ccccc3C2=O)cc1,"inconclusive: 56.2 µM [inhibitor, partial curve]",–
Cc1cc(OCC(=O)N2CCc3ccccc3C2)c(C)cc1Br,"inconclusive: 89.1 µM [inhibitor, single point]",–
Cc1ccc(C=C2C(=O)c3ccccc3C2=O)s1,"inconclusive: 44.7 µM [inhibitor, partial curve]",–
CC12CCC(=O)N1C(C(=O)Nc1nc3c(F)cc(F)cc3s1)CS2 (stereo not drawn),"inconclusive: 35.5 µM [inhibitor, full curve, poor fit]",–
COc1ccccc1CNC(=O)CN(Cc1ccc(Cl)cc1)S(C)(=O)=O,"inconclusive: 22.4 µM [inhibitor, single point]",–
Cc1cc(C)n2cc(CSc3nnnn3-c3ccc(Cl)cc3)nc2n1,–,inconclusive: -49% [inhibitor] [at 57.1 µM]
CCCS(=O)(=O)NC(=O)C1(C)CCN(C(=O)c2cccs2)C1 (stereo not drawn),inactive,–
Cc1cc(C)n(CC(=O)NNC(=O)C2CC(=O)N(Cc3ccccc3Cl)C2)n1 (stereo not drawn),inactive,–
CCOc1ccc(N2C(=O)C(C)CNC2=S)cc1 (stereo not drawn),"inconclusive: 22.4 µM [inhibitor, single point]",–
CCC1CCCCN1CCCNC(=O)CCCOc1cc(=O)n(C)c2ccccc12 (stereo not drawn),"inconclusive: 31.6 µM [inhibitor, single point]",–
Cn1c2ccccc2c2ccc3c(c21)C(=O)C=CC3=O,"inconclusive: 39.8 µM [inhibitor, full curve]",–
CCc1ccc(N2CSC3=C(C#N)C(c4cccs4)CC(=O)N3C2)cc1 (stereo not drawn),–,inactive: -0.823% [at 11.6 µM]
Cc1ccc2c(c1)-c1nc3ccccc3cc1C2=NC1CCCCC1,"inconclusive: 89.1 µM [inhibitor, partial curve, poor fit]",–
COC(=O)C1=C(C)N(CC2CC2)C(=O)N[C@H]1c1ccccc1,"inconclusive: 89.1 µM [inhibitor, single point]",–
CC(=O)N(C1=C(Cl)C(=O)c2ccccc2C1=O)c1ccc(C(=O)O)cc1,active: 35.5 µM,–
Cc1ccc(N=c2ssnc2Cl)cc1,active: 50.1 µM,–
CC(C)(C)/C(O)=C/c1nc2ccccc2oc1=O,–,inactive: 3.28% [at 11.6 µM]
CC(C)(CS(=O)(=O)[O-])NC(=O)CC[N+](C)(C)CCO,active: 7.94 µM,–

# Taken from above:
# Entry of Cn1c2ccccc2c2ccc3c(c21)C(=O)C=CC3=O under Potency: inconclusive: 39.8 µM [inhibitor, full curve]
# Entry of CCCc1cc(=O)[nH]c(SCC(=O)Nc2cc(S(=O)(=O)N3CCCCC3)ccc2Cl)n1 under Potency: inconclusive: 15.8 µM [inhibitor, single point]

# Following part

Structure (SMILES),Potency,"activity change, negative = inhibition"
Cc1[nH]c(=O)nc(SCc2cccc(Cl)c2)c1C#N,"inconclusive: 79.4 µM [inhibitor, single point]",–
COc1ccc(S(=O)(=O)Nc2ccc(O)c3ccccc23)cc1,active: 79.4 µM,–
COc1ccc2c(c1)cc(C(=O)N/N=C/c1c(O)c(C(=O)O)cc3ccccc13)n2C,–,inactive: -13.9% [at 11.6 µM]
COc1ccc2c(c1)-c1nc(/N=C/c3ccccc3O)sc1CC2,inactive,–
COC(=O)C1=C(O)/C(=C\c2ccc(CNS(=O)(=O)c3ccc(Cl)cc3)o2)N=C1C,"inconclusive: 12.6 µM [inhibitor, partial curve]",–
CC(C)(C)[C@H]1C=C(C(=O)Nc2ccccc2)O[C@@H](OCc2ccc(CO)cc2)C1,inactive,–
O=C(c1cc2ncc(Br)cn2n1)N1CCN(C(=O)c2ccco2)CC1,"inconclusive: 50.1 µM [inhibitor, partial curve]",–
COc1ccc(CCn2c(C)nc3ccccc3c2=O)cc1OC,inactive,–
CCN1C(=O)[C@H]2[C@@H](c3ccc(-c4ccc(C(C)=O)cc4)cc3)N[C@@](Cc3ccccc3)(C(=O)OC)[C@H]2C1=O,"inconclusive: 2.82 µM [inhibitor, partial curve, poor fit]",–
Nc1cccnc1Sc1cccc(Cl)c1,"inconclusive: 79.4 µM [inhibitor, partial curve]",–
Cc1ccn2c(=O)nc(SCC(=O)c3ccccc3)nc2c1,"inconclusive: 89.1 µM [inhibitor, partial curve]",–
Cc1cc(C)c(NC(=O)CSc2nc3[nH]ncc3c(=O)[nH]2)c(C)c1,"inconclusive: 39.8 µM [inhibitor, single point]",–
O=C(O)c1ccccc1SC1CC(=O)N(c2cccc3ccccc23)C1=O (stereo not drawn),"inconclusive: 56.2 µM [inhibitor, partial curve]",–
CC(C)CCSc1nc(N)c(C#N)cc1C#N,"inconclusive: 56.2 µM [inhibitor, partial curve]",–
O=C(Nc1nncs1)c1cc(-c2ccco2)nc2ccccc12,active: 31.6 µM,–
O=C(Nc1ccc(S(=O)(=O)NCC2CCCO2)cc1)c1ccccc1 (stereo not drawn),"inconclusive: 28.2 µM [inhibitor, single point]",–
Cn1c(N)c(C(=O)CSc2nnc(-c3c[nH]c4ccccc34)n2C2CC2)c(=O)[nH]c1=O,"inconclusive: 44.7 µM [inhibitor, partial curve]",–
C=CCNC(=O)c1ccc(Cn2c(=S)[nH]c3cc4c(cc3c2=O)OCO4)cc1,"inconclusive: 50.1 µM [inhibitor, partial curve]",–
Cc1ccc(C)n1-c1nc(=S)[nH][nH]1,"inconclusive: 79.4 µM [inhibitor, partial curve]",–
NC(=S)N/N=C/c1cccc(O)c1O,inactive,–
CN=C(c1ccco1)n1c(=S)nc(-c2ccco2)n(C)c1=S,"inconclusive: 70.8 µM [inhibitor, single point]",–
CCOc1ccccc1N1CC(C(=O)N(CC)C2CCS(=O)(=O)C2)CC1=O (stereo not drawn),–,inactive: -0.773% [at 11.6 µM]
O=C(Sc1n[nH]c(=O)[nH]c1=O)c1ccccc1,active: 17.8 µM,–

# Record cards (already shown). Order of values: Potency | activity change, negative = inhibition
# Cc1[nH]c(=O)nc(SCc2cccc(Cl)c2)c1C#N as listed: inconclusive: 79.4 µM [inhibitor, single point] | –
# O=C(Nc1nncs1)c1cc(-c2ccco2)nc2ccccc12 as listed: active: 31.6 µM | –
